# Taken from: PubChem BioAssay AID504744 (Drosophila RNAi Screening Center, 2011)
# Test: 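Find genes whose loss alters insulin-driven dAkt phosphorylation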 (primary screen)
# Cells: Drosophila Kc167 cells
# Reagents: long dsRNA against Drosophila genes, 250 ng dsRNA per well of a 384-well plate
# Time to read-out: 3 days of knock-down, then overnight serum-free starvation before stimulation
# Conditions: bovine insulin at 387 nM for 10 minutes after 12 h without serum
# Detection: 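In-cell antibody fluorescence for phospho-dAkt in each well over DNA-dye signal, with log2 residuals expressed as z-scores adjusted for cell count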
# Active means: 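Under insulin, a gene counts as a hit if the average z-score of two replicates lies above 2.5 or below -2.5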
# The deposit covers about 23,000 reagents; shown is an unselected part of those with a known target gene and a result. In the full data, 98 (0.43%) were called active. 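Only hit calls are given; the phospho-dAkt signals, z-scores and hit direction were not deposited.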 A plus sign joins genes that one reagent is predicted to hit.
The first 2 entries as a preview:
gene,dsRNA,outcome
Trs31,DRSC05975,inactive
Bub1,DRSC02357,inactive

The list itself, from the start:
gene,dsRNA,outcome
Trs31,DRSC05975,inactive
Bub1,DRSC02357,inactive
GlcAT-I,DRSC17307,inactive
CG5535,DRSC10514,inactive
GstD6,DRSC16687,inactive
CG32095,DRSC22615,inactive
nSyb,DRSC08727,inactive
JYalpha,DRSC17224,inactive
amrt,DRSC19378,inactive
Csas,DRSC22390,inactive
PPP1R15,DRSC04422,inactive
CG15533,DRSC15069,inactive
Mt2,DRSC03374,inactive
Gr47b,DRSC05275,inactive
Vps26,DRSC18555,inactive
CG15140,DRSC02440,inactive
GABA-B-R3,DRSC00561,inactive
CG1958,DRSC18196,inactive
CG7653,DRSC01886,inactive
CG16772,DRSC02516,inactive
mRpS28,DRSC06939,inactive
Best2,DRSC09712,inactive
ScsbetaA,DRSC14446,inactive
CG13527,DRSC04169,inactive
Ance-3,DRSC02648,inactive
Ance-3,DRSC02649,inactive
CG13744,DRSC06415,inactive
idc,DRSC15680,inactive
Or67b,DRSC11241,inactive
CG3071,DRSC18526,inactive
aru,DRSC00802,inactive
aru,DRSC22019,inactive
robo3,DRSC00374,inactive
robo3,DRSC00375,inactive
robo3,DRSC00684,inactive
Nup160 + RfC38,DRSC01997,inactive
SCAR,DRSC03426,inactive
CG32086,DRSC10586,inactive
CG42824 + CG42823,DRSC13230,inactive
Ns3,DRSC18607,inactive
Csp,DRSC11860,inactive
Argp,DRSC16510,inactive
CG31642,DRSC02919,inactive
CG5439,DRSC02861,inactive
Kdm2,DRSC14286,inactive
CG11997,DRSC14464,inactive
CG15385,DRSC00399,inactive
in,DRSC11888,inactive
Cys,DRSC16637,inactive
CG31010,DRSC14006,inactive
dnk,DRSC16933,inactive
CG10413,DRSC02052,inactive
Ir56d,DRSC06590,inactive
Snx3,DRSC16027,inactive
gNacalpha,DRSC00654,active
Pat1,DRSC17750,inactive
CG8654,DRSC07231,inactive
SerRS,DRSC00496,inactive
CG12998,DRSC19518,inactive
CG32198,DRSC09553,inactive
CG12321,DRSC14499,inactive
CG10254,DRSC14153,inactive
CkIIalpha,DRSC11946,inactive
Cpr47Ee,DRSC06343,inactive
Gr39b,DRSC01848,inactive
CG10764,DRSC06000,inactive
CG8839,DRSC07285,inactive
CG9920,DRSC16578,inactive
CG9649,DRSC16534,inactive
CG7656,DRSC10900,inactive
NimC4,DRSC01945,inactive
Nox,DRSC06596,inactive
Nox,DRSC06857,inactive
CG8507,DRSC16435,inactive
lama,DRSC11361,inactive
CG3045,DRSC04331,inactive
Stip1,DRSC00756,inactive
Pex23,DRSC10323,inactive
Pex23,DRSC10645,inactive
CG8172,DRSC07089,inactive
CG8172,DRSC22113,inactive
fau,DRSC12816,inactive
fau,DRSC12817,inactive
fau,DRSC16943,inactive
fau,DRSC16944,inactive
fau,DRSC16945,inactive
fau,DRSC22360,inactive
eg,DRSC11885,inactive
CCT7,DRSC16410,inactive
RpS2,DRSC03614,inactive
CG13438,DRSC06398,inactive
BomBc3,DRSC15873,inactive
Hpd,DRSC11670,inactive
wbl,DRSC07718,inactive
CG8508,DRSC16436,inactive
Gr77a,DRSC11446,inactive
CG31229,DRSC13309,inactive
Slu7,DRSC14729,inactive
CG15601,DRSC19670,inactive
mIF2,DRSC14510,inactive
CG8664,DRSC20116,inactive
CG7094,DRSC03005,inactive
Hmt4-20,DRSC18482,inactive
Debcl,DRSC04965,inactive
CG32536 + CG32537,DRSC20074,inactive
CG31176,DRSC15038,inactive
CG31176,DRSC16021,inactive
CG31223,DRSC15115,inactive
sens-2,DRSC02136,inactive
sens-2,DRSC02613,inactive
sens-2,DRSC21374,inactive
Loxl1,DRSC14303,inactive
mia,DRSC12137,inactive
vsg,DRSC10219,inactive
Tbp,DRSC04662,inactive
CG8958,DRSC20134,inactive
CG12780,DRSC06169,inactive
CG11666,DRSC22379,inactive
ATPsyndelta,DRSC18248,inactive
Psi,DRSC07519,inactive
CG2017,DRSC12293,inactive
Try29F,DRSC03466,inactive
Gas8,DRSC22884,inactive
yellow-e3,DRSC15170,inactive
CG42808 + CG42807,DRSC06370,inactive
CG42808 + CG42807,DRSC06966,inactive
AGO3,DRSC21386,inactive
U3-55K,DRSC05982,inactive
Gr39a,DRSC01841,inactive
Gr39a,DRSC01842,inactive
Spn28F,DRSC03615,inactive
CG3690,DRSC18170,inactive
CG3690,DRSC18641,inactive
Snap24,DRSC16864,inactive
Tengl3,DRSC22288,inactive
AP-1-2beta,DRSC19336,inactive
CG30419,DRSC04208,inactive
CG30419,DRSC04209,inactive
CG30419,DRSC22519,inactive
CG8563,DRSC10996,inactive
CG17770 + Acam,DRSC14110,inactive
CG17770 + Acam,DRSC15264,inactive
Osi10b,DRSC12279,inactive
CG8204,DRSC07106,inactive
His3:CG33818 + His3:CG33857 + His3:CG33806 + 20 more,DRSC21267,inactive
AstC,DRSC02403,inactive
p38a,DRSC16743,inactive
CG18788,DRSC02697,inactive
Btnd,DRSC18316,inactive
CheB98a,DRSC14882,inactive
retn,DRSC04679,inactive
LSm1,DRSC04458,inactive
Lsm10,DRSC06250,inactive
Smn,DRSC10223,inactive
RhoGAP19D,DRSC20499,inactive
RhoGAP19D,DRSC20500,inactive
CG2187,DRSC15425,inactive
